Laboratory results as given in US20250369975A1, “METHOD FOR DETECTING TRANSTHYRETIN TETRAMER, AND METHOD FOR EVALUATING STABILITY” (SYSMEX CORPORATION, priority 2024, published 2025).
Some of these results come from one statement about several compounds together.

assay: Comparative Example 3: 1-hour urea treatment, then sandwich ELISA (TTR 4mer %); type: physicochemical, human; conditions: urea 7.2 M, 25° C., FIG. 25

TTR 4mer %, ≥ 80%:
Transthyretin (wild-type) human, recombinant [WT]
transthyretin (V30M) human [Probe V30M]
transthyretin (T119M) human, recombinant [Probe T119M]
